Test results from the supplement of paper PMC10060354, “Discovery of a small molecule ligand of FRS2 that inhibits invasion and tumor growth” (Cellular Oncology, 2022).

Protein sequences, listed by entry. Tags and fused reporters are not part of them. Lines headed by an entry give the natural chain unless they say otherwise; changes in a name come on top.
UniProt Q9UBW8: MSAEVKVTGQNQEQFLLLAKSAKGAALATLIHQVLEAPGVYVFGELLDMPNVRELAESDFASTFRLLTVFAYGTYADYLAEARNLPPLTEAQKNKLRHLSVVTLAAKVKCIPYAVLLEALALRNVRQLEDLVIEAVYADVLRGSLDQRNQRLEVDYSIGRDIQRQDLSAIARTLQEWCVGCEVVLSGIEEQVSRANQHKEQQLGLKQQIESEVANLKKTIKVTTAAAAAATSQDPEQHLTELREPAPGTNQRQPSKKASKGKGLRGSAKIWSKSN
UniProt Q16880: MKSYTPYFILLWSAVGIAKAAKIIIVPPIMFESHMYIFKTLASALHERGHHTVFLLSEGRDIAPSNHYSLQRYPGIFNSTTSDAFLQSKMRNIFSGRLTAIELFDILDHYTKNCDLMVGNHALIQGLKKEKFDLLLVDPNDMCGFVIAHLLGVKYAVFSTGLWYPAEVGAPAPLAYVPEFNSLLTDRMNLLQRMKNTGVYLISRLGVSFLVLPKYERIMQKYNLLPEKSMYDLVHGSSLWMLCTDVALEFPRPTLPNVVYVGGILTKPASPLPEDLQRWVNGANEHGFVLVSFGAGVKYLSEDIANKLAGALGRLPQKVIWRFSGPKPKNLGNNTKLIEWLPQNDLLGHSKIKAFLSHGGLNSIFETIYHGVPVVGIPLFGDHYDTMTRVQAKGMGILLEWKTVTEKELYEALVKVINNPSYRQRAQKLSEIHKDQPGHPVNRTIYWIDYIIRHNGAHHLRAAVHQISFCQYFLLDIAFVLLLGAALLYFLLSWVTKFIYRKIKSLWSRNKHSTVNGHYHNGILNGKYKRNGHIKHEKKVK
UniProt Q99712: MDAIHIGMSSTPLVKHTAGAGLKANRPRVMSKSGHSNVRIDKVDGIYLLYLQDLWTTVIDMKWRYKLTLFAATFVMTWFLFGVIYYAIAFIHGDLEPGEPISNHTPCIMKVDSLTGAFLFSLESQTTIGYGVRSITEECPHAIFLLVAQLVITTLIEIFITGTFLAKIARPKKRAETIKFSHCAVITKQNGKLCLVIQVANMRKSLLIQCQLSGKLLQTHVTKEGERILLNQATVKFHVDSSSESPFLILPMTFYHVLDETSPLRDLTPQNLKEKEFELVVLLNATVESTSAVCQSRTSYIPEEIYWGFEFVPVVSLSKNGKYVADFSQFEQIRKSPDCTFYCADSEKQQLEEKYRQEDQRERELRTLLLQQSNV
UniProt Q9Y2X7: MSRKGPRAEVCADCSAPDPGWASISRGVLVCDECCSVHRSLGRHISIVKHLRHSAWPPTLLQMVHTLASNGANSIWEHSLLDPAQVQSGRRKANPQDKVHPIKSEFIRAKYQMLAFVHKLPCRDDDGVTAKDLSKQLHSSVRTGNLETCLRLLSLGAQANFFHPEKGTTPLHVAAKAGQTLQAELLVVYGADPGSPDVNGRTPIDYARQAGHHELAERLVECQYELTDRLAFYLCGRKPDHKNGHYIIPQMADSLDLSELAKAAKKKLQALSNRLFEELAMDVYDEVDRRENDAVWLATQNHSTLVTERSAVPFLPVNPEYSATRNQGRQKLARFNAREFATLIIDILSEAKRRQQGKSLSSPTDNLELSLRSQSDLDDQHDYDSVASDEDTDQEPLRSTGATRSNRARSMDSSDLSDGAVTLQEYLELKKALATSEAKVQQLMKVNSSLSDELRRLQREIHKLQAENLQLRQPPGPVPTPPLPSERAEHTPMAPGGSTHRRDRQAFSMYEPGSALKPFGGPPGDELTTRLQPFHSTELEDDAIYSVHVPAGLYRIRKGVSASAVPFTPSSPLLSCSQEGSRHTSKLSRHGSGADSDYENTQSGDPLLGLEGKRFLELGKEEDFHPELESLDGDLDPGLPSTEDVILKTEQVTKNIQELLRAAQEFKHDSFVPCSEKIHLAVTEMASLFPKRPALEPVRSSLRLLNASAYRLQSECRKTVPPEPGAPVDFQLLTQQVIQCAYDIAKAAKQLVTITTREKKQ
UniProt O00186: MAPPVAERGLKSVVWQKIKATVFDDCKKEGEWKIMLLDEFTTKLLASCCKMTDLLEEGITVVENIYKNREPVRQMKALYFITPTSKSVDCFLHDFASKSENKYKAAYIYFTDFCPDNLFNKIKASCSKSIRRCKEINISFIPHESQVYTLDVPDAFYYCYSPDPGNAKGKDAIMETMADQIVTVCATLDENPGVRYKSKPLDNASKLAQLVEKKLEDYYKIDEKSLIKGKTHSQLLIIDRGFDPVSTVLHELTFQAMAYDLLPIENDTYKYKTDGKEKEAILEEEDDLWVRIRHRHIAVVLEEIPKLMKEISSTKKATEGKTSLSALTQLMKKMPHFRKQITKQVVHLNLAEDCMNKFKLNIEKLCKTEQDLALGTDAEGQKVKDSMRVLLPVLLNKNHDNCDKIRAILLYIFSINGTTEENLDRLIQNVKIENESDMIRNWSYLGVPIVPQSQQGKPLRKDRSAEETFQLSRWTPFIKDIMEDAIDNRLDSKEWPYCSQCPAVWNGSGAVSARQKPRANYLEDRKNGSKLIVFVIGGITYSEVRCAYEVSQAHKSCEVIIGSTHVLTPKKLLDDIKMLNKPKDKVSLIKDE
UniProt P02787, whole entry: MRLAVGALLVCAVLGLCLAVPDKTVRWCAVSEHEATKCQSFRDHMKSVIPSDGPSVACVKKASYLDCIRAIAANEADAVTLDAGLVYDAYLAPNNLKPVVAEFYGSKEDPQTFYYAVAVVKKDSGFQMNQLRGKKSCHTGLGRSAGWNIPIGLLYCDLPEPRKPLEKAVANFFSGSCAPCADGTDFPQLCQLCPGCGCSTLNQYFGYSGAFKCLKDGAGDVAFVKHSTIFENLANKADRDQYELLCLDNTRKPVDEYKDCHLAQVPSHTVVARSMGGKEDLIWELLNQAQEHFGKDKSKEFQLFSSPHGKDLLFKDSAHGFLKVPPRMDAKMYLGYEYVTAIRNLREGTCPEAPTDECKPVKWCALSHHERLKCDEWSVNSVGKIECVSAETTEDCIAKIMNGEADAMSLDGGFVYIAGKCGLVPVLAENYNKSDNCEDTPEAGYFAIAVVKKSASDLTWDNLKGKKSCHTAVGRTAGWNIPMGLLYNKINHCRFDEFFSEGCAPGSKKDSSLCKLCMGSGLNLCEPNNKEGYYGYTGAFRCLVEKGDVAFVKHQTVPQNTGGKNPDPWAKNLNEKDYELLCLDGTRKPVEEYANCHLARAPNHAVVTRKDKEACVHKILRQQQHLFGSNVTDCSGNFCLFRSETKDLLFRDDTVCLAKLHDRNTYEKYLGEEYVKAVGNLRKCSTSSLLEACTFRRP
UniProt Q9Y3E0: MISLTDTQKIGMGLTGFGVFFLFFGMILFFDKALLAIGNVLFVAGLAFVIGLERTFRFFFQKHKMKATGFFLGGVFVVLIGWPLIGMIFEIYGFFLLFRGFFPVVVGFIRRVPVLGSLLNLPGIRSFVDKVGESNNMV
UniProt Q9BTE7: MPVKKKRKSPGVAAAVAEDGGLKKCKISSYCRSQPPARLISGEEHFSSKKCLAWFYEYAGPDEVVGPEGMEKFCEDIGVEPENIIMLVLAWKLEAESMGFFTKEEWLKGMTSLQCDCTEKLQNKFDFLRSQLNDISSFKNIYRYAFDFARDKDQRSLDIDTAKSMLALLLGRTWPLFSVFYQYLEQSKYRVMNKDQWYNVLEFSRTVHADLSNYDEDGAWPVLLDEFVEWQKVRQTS
UniProt Q53HI1: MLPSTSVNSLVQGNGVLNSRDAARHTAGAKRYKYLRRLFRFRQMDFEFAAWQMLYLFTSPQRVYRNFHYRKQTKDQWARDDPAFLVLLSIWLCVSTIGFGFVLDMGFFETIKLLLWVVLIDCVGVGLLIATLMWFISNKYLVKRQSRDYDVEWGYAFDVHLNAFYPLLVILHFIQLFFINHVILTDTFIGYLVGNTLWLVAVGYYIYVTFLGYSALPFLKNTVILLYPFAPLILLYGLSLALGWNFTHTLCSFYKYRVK
UniProt O96017, whole entry: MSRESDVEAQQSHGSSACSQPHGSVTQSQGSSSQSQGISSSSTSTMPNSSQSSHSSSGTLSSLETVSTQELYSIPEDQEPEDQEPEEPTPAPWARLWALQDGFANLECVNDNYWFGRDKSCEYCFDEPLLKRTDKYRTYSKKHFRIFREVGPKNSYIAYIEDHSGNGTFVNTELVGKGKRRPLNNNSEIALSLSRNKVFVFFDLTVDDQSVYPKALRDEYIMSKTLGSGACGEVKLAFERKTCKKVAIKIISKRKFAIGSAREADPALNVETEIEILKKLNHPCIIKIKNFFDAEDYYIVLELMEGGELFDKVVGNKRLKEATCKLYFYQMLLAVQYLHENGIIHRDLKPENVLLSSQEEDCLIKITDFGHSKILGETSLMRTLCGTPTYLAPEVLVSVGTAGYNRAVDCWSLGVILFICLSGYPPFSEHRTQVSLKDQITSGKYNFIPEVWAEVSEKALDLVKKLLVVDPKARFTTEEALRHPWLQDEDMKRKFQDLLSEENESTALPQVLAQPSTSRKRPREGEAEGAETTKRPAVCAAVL
UniProt Q9Y6K5: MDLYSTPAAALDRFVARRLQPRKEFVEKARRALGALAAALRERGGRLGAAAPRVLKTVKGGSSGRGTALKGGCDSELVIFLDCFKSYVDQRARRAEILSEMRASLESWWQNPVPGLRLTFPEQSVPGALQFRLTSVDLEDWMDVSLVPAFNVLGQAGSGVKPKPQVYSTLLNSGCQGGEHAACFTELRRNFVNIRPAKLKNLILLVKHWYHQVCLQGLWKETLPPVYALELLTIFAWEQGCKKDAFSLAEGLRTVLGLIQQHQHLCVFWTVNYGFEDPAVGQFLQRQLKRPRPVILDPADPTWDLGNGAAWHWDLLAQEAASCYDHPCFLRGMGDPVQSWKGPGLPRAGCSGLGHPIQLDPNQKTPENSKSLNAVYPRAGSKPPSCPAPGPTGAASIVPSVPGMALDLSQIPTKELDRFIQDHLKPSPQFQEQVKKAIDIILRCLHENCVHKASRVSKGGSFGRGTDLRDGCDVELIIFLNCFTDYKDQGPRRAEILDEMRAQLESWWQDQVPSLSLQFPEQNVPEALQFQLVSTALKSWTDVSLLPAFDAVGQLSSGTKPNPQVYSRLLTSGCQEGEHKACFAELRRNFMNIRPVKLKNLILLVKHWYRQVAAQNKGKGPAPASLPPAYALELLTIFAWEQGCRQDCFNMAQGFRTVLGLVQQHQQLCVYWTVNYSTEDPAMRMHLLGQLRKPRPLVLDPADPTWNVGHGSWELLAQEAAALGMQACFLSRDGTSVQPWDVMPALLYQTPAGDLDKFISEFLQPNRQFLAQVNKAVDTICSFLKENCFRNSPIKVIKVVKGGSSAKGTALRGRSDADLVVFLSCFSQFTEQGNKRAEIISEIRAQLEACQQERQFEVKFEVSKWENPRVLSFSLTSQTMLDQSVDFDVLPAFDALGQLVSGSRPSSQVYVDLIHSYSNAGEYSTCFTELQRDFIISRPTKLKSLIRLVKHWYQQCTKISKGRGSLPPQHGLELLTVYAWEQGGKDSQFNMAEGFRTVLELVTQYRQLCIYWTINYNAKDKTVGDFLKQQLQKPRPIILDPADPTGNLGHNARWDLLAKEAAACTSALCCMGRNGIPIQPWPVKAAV
UniProt O00116: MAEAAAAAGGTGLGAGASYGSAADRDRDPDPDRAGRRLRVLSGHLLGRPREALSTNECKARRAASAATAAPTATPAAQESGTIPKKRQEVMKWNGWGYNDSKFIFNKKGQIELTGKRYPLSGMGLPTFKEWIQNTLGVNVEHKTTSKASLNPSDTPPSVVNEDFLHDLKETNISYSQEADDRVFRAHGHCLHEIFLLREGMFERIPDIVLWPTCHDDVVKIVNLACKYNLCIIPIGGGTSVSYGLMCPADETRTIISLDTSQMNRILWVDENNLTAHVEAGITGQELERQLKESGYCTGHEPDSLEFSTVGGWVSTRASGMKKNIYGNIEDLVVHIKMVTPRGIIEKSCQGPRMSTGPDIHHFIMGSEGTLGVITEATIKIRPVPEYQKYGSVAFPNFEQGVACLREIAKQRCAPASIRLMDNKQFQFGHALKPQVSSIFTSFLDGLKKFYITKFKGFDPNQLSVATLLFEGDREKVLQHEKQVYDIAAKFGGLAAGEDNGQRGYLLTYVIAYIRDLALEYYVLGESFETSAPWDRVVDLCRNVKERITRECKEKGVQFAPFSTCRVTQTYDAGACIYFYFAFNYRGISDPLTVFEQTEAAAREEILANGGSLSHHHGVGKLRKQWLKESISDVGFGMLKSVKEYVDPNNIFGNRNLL
UniProt Q16773: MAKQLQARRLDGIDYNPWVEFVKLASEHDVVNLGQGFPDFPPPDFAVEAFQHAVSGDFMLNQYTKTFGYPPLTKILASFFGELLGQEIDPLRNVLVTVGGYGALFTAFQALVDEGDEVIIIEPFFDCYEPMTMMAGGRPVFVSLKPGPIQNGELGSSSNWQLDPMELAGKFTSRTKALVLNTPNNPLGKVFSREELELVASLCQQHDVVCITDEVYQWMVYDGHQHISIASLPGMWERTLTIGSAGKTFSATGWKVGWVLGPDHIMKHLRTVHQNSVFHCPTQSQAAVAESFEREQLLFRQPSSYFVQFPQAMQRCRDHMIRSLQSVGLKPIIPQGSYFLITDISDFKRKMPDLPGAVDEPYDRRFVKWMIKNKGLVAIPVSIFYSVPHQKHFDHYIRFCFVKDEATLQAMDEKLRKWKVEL

Compound: [O-][N+](C(C1=C(C(O)=C2)NC(C(C=C3)=CC=C3Cl)C4C1C=CC4)=C2Cl)=O
Experiment: melting temperature shift (compound 7 minus DMSO); higher = compound stabilises the protein
Conditions: 10 µM
Method: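 Thermal proteome profiling (TMT mass spectrometry) in intact DAOY medulloblastoma cells or DAOY lysates treated with 10 µM compound 7 or DMSO, heated at 10 temperatures from 40.5 to 73.8 °C for 3 min. Melting curves were fitted with the Bioconductor TPP package, and the melting point difference between compound and vehicle is reported per protein (single curve per condition).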

[1] = system: DAOY cell lysate, treatment time: 20 min, 4 °C
[2] = system: intact DAOY cells, treatment time: 90 min, 37 °C

| Target | melting temperature shift [1] [°C] | melting temperature shift [2] [°C] |
| --- | --- | --- |
| COPS7A (UniProt Q9UBW8) | -1 | 0.156 |
| UniProt Q9Y247 |  | -1.26 |
| YIPF4 (UniProt Q9BSR8) | 0.288 | -0.27 |
| UniProt P17302 | 0.945 | 3.86 |
| DBR1 (UniProt Q9UK59) | -0.555 | 0.169 |
| UniProt P43361 | 4.09 |  |
| EPB41L1 (UniProt Q9H4G0) | 1.63 | 0.785 |
| UGT8 (UniProt Q16880) | 1.1 |  |
| ACOX1 (UniProt Q15067) | 0.719 | 0.545 |
| UniProt O60237 |  | -1.56 |
| WDR41 (UniProt Q9HAD4) | -0.552 | -0.321 |
| GINS4 (UniProt Q9BRT9) | -1.16 | 0.648 |
| NT5DC2 (UniProt Q9H857) | 1.34 | -0.161 |
| UniProt P49675 | -2.95 | -0.523 |
| UniProt Q99712 |  | 0.728 |
| UniProt P39880 | 1.3 | -1.12 |
| EPHB3 (UniProt P54753) |  | -0.67 |
| RNASEH2B (UniProt Q5TBB1) | -1.43 | -0.434 |
| VAPA (UniProt Q9P0L0) | 2.07 | -0.394 |
| SH3BP4 (UniProt Q9P0V3) | -0.922 | -0.0209 |
| ATP2B1 (UniProt P20020) | 0.813 | -0.788 |
| MAP4 (UniProt P27816) | -1.33 |  |
| THADA (UniProt Q6YHU6) | -1.1 | -0.251 |

| Target | melting temperature shift [1] [°C] | melting temperature shift [2] [°C] |
| --- | --- | --- |
| SCAMP1 (UniProt O15126) | 0.464 |  |
| SNTB2 (UniProt Q13425) | 0.862 | -0.0749 |
| FKBP2 (UniProt P26885) | -0.958 | 0.165 |
| UniProt Q8NHW5 |  | 1.28 |
| SRP54 (UniProt P61011) | -0.24 | -0.759 |
| DEK (UniProt P35659) | 0.417 | -1.16 |
| EML4 (UniProt Q9HC35) | -0.399 | 0.0243 |
| GINS1 (UniProt Q14691) | 0.19 | -0.676 |
| CORO1B (UniProt Q9BR76) | 0.161 | 0.535 |
| GGA2 (UniProt Q9UJY4) | -0.529 |  |
| ETFA (UniProt P13804) | 0.411 | 0.296 |
| MLST8 (UniProt Q9BVC4) | -0.973 | 0.0421 |
| TWISTNB (UniProt Q3B726) | -1.24 |  |
| TPI1 (UniProt P60174) | -1.48 | 0.099 |
| PLD3 (UniProt Q8IV08) | -0.675 | -0.362 |
| POGZ (UniProt Q7Z3K3) | 1.43 | -1.75 |
| PRDX5 (UniProt P30044) | 0.171 | -0.768 |
| UniProt Q9Y587 | 0.334 |  |
| UniProt Q8N2F6 | 0.28 | -1.19 |
| TRUB1 (UniProt Q8WWH5) | -0.871 | 1.37 |
| OAT (UniProt P04181) | -0.379 | -1.28 |
| UniProt Q9NSG2 | -2.38 |  |
| GIT1 (UniProt Q9Y2X7) | -1.01 | -0.689 |

| Target | melting temperature shift [1] [°C] | melting temperature shift [2] [°C] |
| --- | --- | --- |
| COG8 (UniProt Q96MW5) | -0.00195 | -0.0197 |
| SHTN1 (UniProt A0MZ66) | -0.513 | -0.449 |
| UBR7 (UniProt Q8N806) | 0.475 | 0.307 |
| STXBP3 (UniProt O00186) | 0.716 | 0.414 |
| ASAP1 (UniProt Q9ULH1) | 0.401 | -0.0409 |
| TTC39C (UniProt Q8N584) | -0.652 | 0.798 |
| TEX264 (UniProt Q9Y6I9) | 1.89 | -0.145 |
| MRPL44 (UniProt Q9H9J2) | 1 | -0.614 |
| TRIM26 (UniProt Q12899) | -0.67 | -0.185 |
| STK11 (UniProt Q15831) | 2.15 | -3.02 |
| UniProt Q9HD40 | -1.65 |  |
| HMGB2 (UniProt P26583) | 0.818 |  |
| PLGRKT (UniProt Q9HBL7) | 3.81 | 0.561 |
| IPO8 (UniProt O15397) | -1.07 | -0.873 |
| UniProt Q6K0P9 |  | -0.942 |
| HNRNPL (UniProt P14866) | 0.379 | -0.627 |
| UniProt P02787 | -2.51 |  |
| SNX2 (UniProt O60749) | -1.04 | -1.44 |
| PNN (UniProt Q9H307) | 0.788 | 3.5 |
| SETD7 (UniProt Q8WTS6) | 0.56 | 0.271 |
| MAT2A (UniProt P31153) | -0.642 | -2.36 |
| GOLT1B (UniProt Q9Y3E0) | 1.71 |  |
| PPP3CA (UniProt Q08209) | -0.8 | 0.68 |

| Target | melting temperature shift [1] [°C] | melting temperature shift [2] [°C] |
| --- | --- | --- |
| TOM1L1 (UniProt O75674) | -1.49 |  |
| UniProt Q7L9L4 | -1.36 | 0.236 |
| UniProt Q8N4A0 |  | 1.46 |
| WDR18 (UniProt Q9BV38) | 0.139 | 2.61 |
| JMJD6 (UniProt Q6NYC1) | -0.0191 | -1.36 |
| BCKDK (UniProt O14874) | -0.873 |  |
| GBF1 (UniProt Q92538) | -0.204 | -0.126 |
| DCUN1D5 (UniProt Q9BTE7) | -1.51 | -1.45 |
| ELMOD2 (UniProt Q8IZ81) | 1.1 |  |
| UniProt P56559 |  | -1.3 |
| RBM6 (UniProt P78332) | 1.48 | -0.369 |
| PRPF40A (UniProt O75400) | 0.176 | -0.48 |
| SRSF2 (UniProt Q01130) | 0.183 |  |
| XRCC6 (UniProt P12956) | 0.247 | -0.657 |
| UniProt Q53HI1 |  | 0.176 |
| UniProt Q9H3G5 | 0.544 | -0.558 |
| UniProt Q8NBW4 | 2.01 | -4.61 |
| UniProt O14602 |  | -0.387 |
| HPCAL1 (UniProt P37235) | 1.35 |  |
| PRDX4 (UniProt Q13162) | -0.311 |  |
| TMOD3 (UniProt Q9NYL9) | -0.268 | -0.149 |
| UniProt O96017 | -0.391 |  |
| LAMB2 (UniProt P55268) | 0.899 | -0.359 |

| Target | melting temperature shift [1] [°C] | melting temperature shift [2] [°C] |
| --- | --- | --- |
| TBCC (UniProt Q15814) | -0.192 | 0.337 |
| MRPL11 (UniProt Q9Y3B7) | 0.747 | -0.917 |
| HCFC1 (UniProt P51610) | -0.455 | -0.62 |
| OAS3 (UniProt Q9Y6K5) | -1.68 | -1.22 |
| UniProt P49356 | 0.115 | 0.565 |
| RAB18 (UniProt Q9NP72) | 0.396 | -1.65 |
| PPP1R13L (UniProt Q8WUF5) | -1.73 | -0.125 |
| DIS3L2 (UniProt Q8IYB7) | -2.33 | 1.45 |
| GLCE (UniProt O94923) | 3.99 |  |
| TTC5 (UniProt Q8N0Z6) | -0.489 | -2.66 |
| EEA1 (UniProt Q15075) | -1.18 |  |
| AGPS (UniProt O00116) | 1.24 | 0.767 |
| ITPR1 (UniProt Q14643) |  | -0.447 |
| FLVCR1 (UniProt Q9Y5Y0) | 4.79 | -1.17 |
| DCPS (UniProt Q96C86) | -0.0837 | 0.0572 |
| ACBD6 (UniProt Q9BR61) | 0.158 | 0.608 |
| NAF1 (UniProt Q96HR8) | -0.427 | 2.79 |
| C1ORF52 (UniProt Q8N6N3) | -2.55 |  |
| LLGL1 (UniProt Q15334) | -1.25 | 0.986 |
| UniProt Q16773 | -1.53 | 3.46 |
| UniProt Q8N7P1 |  | 0.279 |

Pulled one by one from the entries so far (2):

| Target | melting temperature shift [1] [°C] | melting temperature shift [2] [°C] |
| --- | --- | --- |
| ETFA (UniProt P13804) | 0.411 | 0.296 |
| CORO1B (UniProt Q9BR76) | 0.161 | 0.535 |

Whole records as entered above. Order of values: melting temperature shift [1] [°C] | melting temperature shift [2] [°C]
UniProt Q16773 in the list: -1.53 | 3.46
FLVCR1 (UniProt Q9Y5Y0) in the list: 4.79 | -1.17
AGPS (UniProt O00116) in the list: 1.24 | 0.767

Many values rest on one well or one pass, so single values are uncertain.
